According to patent US4207308A, “Process for purifying iodinated bile acid conjugates” (priority 1977, dated 1980):
“And” between values parts separate entries of the source, which are not always exact repeats. Equal entries are not always repeated.

Assay: Recovery of cholylglycine added to serum (RIA validation)
Set-up: species or system patients
Conditions: cholylglycine added to three sera (two normal, one elevated), cholylglycine standard curve

For C[C@H](CCC(=O)NCC(=O)O)[C@H]1CC[C@H]2[C@@H]3[C@H](O)C[C@@H]4C[C@H](O)CC[C@]4(C)[C@H]3C[C@H](O)[C@]12C [Cholylglycine], the Recovery was 120% and 123% and 133%.
